From paper PMC6099276
Results are given in words; binding and its absence hold for the method and conditions named. In cells and extracts the contact can be indirect. Here binding means that the protein was enriched with, or labelled near, the bait; the list need not be complete. Sequences can lack the tags named with a protein.

Experiments:
[1] = molecular target: T1, AtVPS30-FLAG (AtVPS30 fused with three FLAG tags) (Arabidopsis thaliana) (UniProt Q9M367); test: affinity purification with mass spectrometry; Co-IP/MS from about 3 g leaf tissue of 20-d-old 35S-USL1-MYC or 35S-VPS30-FLAG transgenic Arabidopsis; purified proteins separated by SDS-PAGE, whole lane digested with trypsin, LC-MS/MS
T1 sequence: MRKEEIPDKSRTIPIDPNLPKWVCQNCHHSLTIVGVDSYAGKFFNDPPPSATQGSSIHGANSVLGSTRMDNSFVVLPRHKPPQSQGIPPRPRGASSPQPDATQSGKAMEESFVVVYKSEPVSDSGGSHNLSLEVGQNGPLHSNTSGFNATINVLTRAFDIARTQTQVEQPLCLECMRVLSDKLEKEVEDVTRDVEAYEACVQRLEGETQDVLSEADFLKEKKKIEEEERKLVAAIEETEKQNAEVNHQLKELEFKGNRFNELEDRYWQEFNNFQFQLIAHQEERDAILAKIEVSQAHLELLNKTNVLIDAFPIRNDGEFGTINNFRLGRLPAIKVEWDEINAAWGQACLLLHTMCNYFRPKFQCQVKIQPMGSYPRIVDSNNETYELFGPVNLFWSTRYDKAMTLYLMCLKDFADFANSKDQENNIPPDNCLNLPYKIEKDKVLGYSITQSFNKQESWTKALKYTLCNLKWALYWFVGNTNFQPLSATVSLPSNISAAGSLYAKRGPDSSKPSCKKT

[2] = molecular target: T2, USL1-MYC (U… AND SMALL LEAVES 1 fused with six MYC tags) (Arabidopsis thaliana) (UniProt Q8S9J3); test: as above
T2 sequence: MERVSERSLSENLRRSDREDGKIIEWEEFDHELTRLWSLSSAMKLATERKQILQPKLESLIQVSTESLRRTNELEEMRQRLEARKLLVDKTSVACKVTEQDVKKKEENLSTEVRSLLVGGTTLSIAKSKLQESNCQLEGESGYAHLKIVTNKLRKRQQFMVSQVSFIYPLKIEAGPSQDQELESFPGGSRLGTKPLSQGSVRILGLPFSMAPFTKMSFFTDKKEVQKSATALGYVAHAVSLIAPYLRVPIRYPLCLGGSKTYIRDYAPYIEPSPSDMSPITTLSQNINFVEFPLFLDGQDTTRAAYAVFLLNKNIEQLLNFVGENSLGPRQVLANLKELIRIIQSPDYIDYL

B1: AtVPS15 (protein, UniProt Q9M0E5 1-1494)
chain: MGNKIARTTQVSATEYYLHDLPSSYNLVLKEVLGRGRFLKSIQCKHDEGLVVVKVYFKRGDSIDLREYERRLVKIKDVFLSLEHPHVWPFQFWQETDKAAYLVRQYFYSNLHDRLSTRPFLSLVEKKWLAFQLLLAVKQCHEKDICHGDIKCENVLLTSWNWLYLADFASFKPTYIPYDDPSDFSFFFDTRGQRLCYLAPERFYEHGGETQVAQDAPLKPSMDIFAVGCVIAELFLEGQPLFELAQLLAYRRGQHDPSQHLEKIPDPGIRKMILHMIQLEPEARLSAEDYLQNYVGVVFPNYFSPFLHTLYCCWNPLPSDMRVATCQGIFQEILKKMMENKSGDEIGVDSPVTSNPMNASTVQETFANHKLNSSKDLIRNTVNSKDEIFYSISDALKKNRHPFLKKITMDDLGTLMSLYDSRSDTYGTPFLPVEGNMRCEGMVLIASMLCSCIRNIKLPHLRREAILLLRSCSLYIDDDDRLQRVLPYVVALLSDPTAIVRCAAMETLCDILPLVRDFPPSDAKIFPEYIFPMLSMLPEDTEESVRICYASNIAKLALTAYGFLIHSFQLSDVGVLNELNSQQISTTPASETPSHLQKANGNAQLQQLRKTIAEVVQELVMGPKQTPNVRRALLQDIGELCFFFGQRQSNDFLLPILPAFLNDRDEQLRSVFFEKIVYVCFFVGQRSVEEYLLPYIDQALSDQTEAVIVNALECLSTLCKSSFLRKRALLQMIECVYPLLCYPSQWVRRAVVTFIAASSECLGAVDSYAFIAPVIRSYLSRLPASIASEEGLLSCLKPPVTREVVYRIFEKTRNPEFMAKQRKMWYSSSPQSKDWESVDLFDKDAGELNSVECRAEQKQSVEGKKQIKSASKQPEVQGKYAEKDAKLRIPRNPRPNASNTVELRDPVYPEKLQFSGFMAPYVSGANSFIEPENIPLYSFSMDKRAATNPPVASESSLQMNSLGMGSLSVPWMDSMSKSFNLASSVPVPKLISGSFHVGTNPKQFYRVVHEPESRENDQISSAISKFQDLGVSSSSKSASVTSEDASSPADLVGEPSLSRTSVPDSGWKPRGVLVAHLQEHRSAVNDIATSSDHSFFVSASDDSTVKVWDSRKLEKDISFRSRLTYHLEGSRGMCTTMLRNSTQVVVGASDGVIHMFSIDHISRGLGNVVEKYSGIVDIKKKDVKEGALVSLLNYTADSLSGPMVMYSTQNCGIHLWDTRSDLDAWTLKANPEEGYVSSLVTSPCGNWFVSGSSRGVLTLWDLRFRVPVNSWQYPIICPIEKMCLCFLPPSVSVSTTMKPLIYVAAGCNEVSLWNAEGGSCHQVLRVANYENETDVSEFQWKLPSNKVNPKPNHRQNMSSKYRIEELNEPPPRLPGIRSLLPLPGGDLLTGGTDLKIRRWDYSSPERSYCICGPSLKGVGNDDFYELKTNTGVQFVQETKRRPLATKLTAKAVLAAAATDTAGCHRDSVQSLASVKLNQRLLISSSRDGAIKVWK
Q: For B1, which binding [1] is on record?
A: binds

Q: And the binding [2]?
A: binds

B2: AtVPS30 (protein, UniProt Q9M367 1-517)
chain: T1 sequence
Q: Which binding [2] does the source give for B2 here?
A: binds

B3: USL1 (U… AND SMALL LEAVES 1) (protein, UniProt Q8S9J3 1-352)
chain: T2 sequence
Q: How did the binding [1] turn out when B3 was run?
A: binds
